From PMC6134199 come the findings set out here.

Chains of the proteins cited; added tags and fusions are not shown. Lines headed by an entry give the natural chain unless they say otherwise; changes in a name come on top.
UniProt P76114, whole entry: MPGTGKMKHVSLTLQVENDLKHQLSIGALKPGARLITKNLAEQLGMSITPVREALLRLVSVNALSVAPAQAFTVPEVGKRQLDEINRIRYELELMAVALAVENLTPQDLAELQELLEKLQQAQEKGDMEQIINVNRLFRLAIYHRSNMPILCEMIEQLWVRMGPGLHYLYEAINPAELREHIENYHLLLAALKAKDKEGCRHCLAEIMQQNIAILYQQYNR
UniProt P76086: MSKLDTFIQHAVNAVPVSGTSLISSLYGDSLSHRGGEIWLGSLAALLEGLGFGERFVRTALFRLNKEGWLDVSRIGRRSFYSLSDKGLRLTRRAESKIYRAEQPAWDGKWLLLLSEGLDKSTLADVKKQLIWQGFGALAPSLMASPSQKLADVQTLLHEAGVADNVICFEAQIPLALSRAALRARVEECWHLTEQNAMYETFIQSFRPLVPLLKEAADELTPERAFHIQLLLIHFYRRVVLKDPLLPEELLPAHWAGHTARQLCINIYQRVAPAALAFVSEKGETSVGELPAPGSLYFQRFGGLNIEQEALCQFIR

Common to all, as to assay: EMSA
Data set [1] deals with T1, DmlR (Escherichia coli K-12 W3110 type A) (UniProt P76250).
T1 sequence (looked up, limits assumed): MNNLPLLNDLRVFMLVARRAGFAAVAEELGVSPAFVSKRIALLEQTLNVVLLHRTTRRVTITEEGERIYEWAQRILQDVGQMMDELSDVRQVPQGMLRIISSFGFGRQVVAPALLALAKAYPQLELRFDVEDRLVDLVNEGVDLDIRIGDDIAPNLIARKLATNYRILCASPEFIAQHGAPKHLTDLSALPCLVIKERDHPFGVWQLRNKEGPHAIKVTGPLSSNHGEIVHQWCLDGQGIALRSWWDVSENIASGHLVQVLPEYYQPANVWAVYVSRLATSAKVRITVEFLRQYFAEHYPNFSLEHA
The conditions noted are these: 0.5 pmol each FITC probe + 20 pmol TF (Fig 4: 0-8 pmol) in 10 ul DNA-binding buffer (composition not given, ref 38), 37 C, 20 min, PAGE with mixed probes; recombinant protein; protein details: His; label: FITC.

The target in data set [2] is T2, DsdC (Escherichia coli K-12 W3110 type A) (UniProt P46068).
T2 sequence (looked up, limits assumed): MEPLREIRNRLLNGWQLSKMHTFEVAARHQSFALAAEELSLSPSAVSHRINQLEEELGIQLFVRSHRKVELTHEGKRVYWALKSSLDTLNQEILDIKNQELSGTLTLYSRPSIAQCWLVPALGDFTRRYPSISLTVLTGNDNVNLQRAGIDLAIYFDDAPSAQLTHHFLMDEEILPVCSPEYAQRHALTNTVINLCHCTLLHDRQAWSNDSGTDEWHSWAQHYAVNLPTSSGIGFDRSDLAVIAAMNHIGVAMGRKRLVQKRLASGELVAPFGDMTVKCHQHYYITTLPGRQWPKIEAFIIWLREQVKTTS
The conditions noted are these: 0.5 pmol each FITC probe + 20 pmol TF (Fig 4: 0-8 pmol) in 10 ul DNA-binding buffer (composition not given, ref 38), 37 C, 20 min, PAGE with mixed probes; recombinant protein; protein details: His; label: FITC.

Data set [3] addresses McbR (Escherichia coli K-12 W3110 type A) (UniProt P76114). The conditions noted are these: 0.5 pmol each FITC probe + 20 pmol TF (Fig 4: 0-8 pmol) in 10 ul DNA-binding buffer (composition not given, ref 38), 37 C, 20 min, PAGE with mixed probes, recombinant protein, protein details: His, label: FITC.
The target of data set [4] is T3, OmpR (Escherichia coli K-12 W3110 type A) (UniProt P0AA16).
T3 sequence (looked up, limits assumed): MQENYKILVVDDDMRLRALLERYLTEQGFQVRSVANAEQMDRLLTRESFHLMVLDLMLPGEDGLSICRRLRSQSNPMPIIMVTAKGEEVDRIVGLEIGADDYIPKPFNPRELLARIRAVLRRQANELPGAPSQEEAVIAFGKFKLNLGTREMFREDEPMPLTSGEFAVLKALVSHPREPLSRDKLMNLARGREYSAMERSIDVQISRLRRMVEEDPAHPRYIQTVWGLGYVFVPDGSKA
Conditions: 0.5 pmol each FITC probe + 20 pmol TF (Fig 4: 0-8 pmol) in 10 ul DNA-binding buffer (composition not given, ref 38), 37 C, 20 min, PAGE with mixed probes; recombinant protein; protein details: His; label: FITC.

For data set [5], the target named is PaaX (Escherichia coli K-12 W3110 type A) (UniProt P76086). The conditions noted are these: 0.5 pmol each FITC probe + 20 pmol TF (Fig 4: 0-8 pmol) in 10 ul DNA-binding buffer (composition not given, ref 38), 37 C, 20 min, PAGE with mixed probes; recombinant protein; protein details: His; label: FITC.
The target in data set [6] is T4, SdiA (Escherichia coli K-12 W3110 type A) (UniProt P07026).
T4 sequence (looked up, limits assumed): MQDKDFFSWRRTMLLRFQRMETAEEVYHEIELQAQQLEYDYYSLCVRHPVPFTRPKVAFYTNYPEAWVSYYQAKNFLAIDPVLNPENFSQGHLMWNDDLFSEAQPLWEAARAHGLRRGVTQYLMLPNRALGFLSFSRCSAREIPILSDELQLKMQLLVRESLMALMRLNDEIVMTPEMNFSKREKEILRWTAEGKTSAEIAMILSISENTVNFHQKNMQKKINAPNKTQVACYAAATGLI
The conditions noted are these: 0.5 pmol each FITC probe + 20 pmol TF (Fig 4: 0-8 pmol) in 10 ul DNA-binding buffer (composition not given, ref 38), 37 C, 20 min, PAGE with mixed probes, recombinant protein, protein details: His, label: FITC.

Data set [7] has as its target T5, UxuR (Escherichia coli K-12 W3110 type A) (UniProt P39161).
T5 sequence (looked up, limits assumed): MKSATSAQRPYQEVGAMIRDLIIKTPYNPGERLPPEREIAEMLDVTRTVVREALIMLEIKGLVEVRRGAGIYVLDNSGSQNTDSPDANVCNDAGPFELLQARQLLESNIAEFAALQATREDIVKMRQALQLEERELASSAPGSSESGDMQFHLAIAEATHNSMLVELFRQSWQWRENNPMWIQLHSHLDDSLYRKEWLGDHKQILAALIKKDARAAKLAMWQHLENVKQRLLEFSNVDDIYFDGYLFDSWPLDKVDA
Conditions: 0.5 pmol each FITC probe + 20 pmol TF (Fig 4: 0-8 pmol) in 10 ul DNA-binding buffer (composition not given, ref 38), 37 C, 20 min, PAGE with mixed probes; recombinant protein; protein details: His; label: FITC.

Data set [8] concerns the target T6, YfeR (Escherichia coli K-12 W3110 type A) (UniProt P0ACR7).
T6 sequence (looked up, limits assumed): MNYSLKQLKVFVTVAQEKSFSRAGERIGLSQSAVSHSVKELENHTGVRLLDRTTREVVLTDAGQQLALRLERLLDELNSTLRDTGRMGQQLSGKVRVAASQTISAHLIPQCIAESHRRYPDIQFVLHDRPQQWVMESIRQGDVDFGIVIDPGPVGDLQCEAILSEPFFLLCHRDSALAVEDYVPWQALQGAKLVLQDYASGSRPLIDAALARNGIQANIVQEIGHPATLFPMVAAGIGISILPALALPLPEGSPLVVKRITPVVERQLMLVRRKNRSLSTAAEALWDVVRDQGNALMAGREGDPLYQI
The conditions noted are these: 0.5 pmol each FITC probe + 20 pmol TF (Fig 4: 0-8 pmol) in 10 ul DNA-binding buffer (composition not given, ref 38), 37 C, 20 min, PAGE with mixed probes; recombinant protein; protein details: His; label: FITC.

For data set [9], the target named is T7, YijO (Escherichia coli K-12 W3110 type A) (UniProt P32677).
T7 sequence (looked up, limits assumed): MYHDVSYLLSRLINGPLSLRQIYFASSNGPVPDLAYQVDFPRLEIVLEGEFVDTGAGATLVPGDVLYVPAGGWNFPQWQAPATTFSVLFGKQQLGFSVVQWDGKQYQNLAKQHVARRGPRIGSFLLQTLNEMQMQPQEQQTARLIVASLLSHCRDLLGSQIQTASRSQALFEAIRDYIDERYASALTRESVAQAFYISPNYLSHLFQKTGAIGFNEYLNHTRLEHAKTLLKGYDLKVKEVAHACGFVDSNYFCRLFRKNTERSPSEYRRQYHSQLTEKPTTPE
Conditions: 0.5 pmol each FITC probe + 20 pmol TF (Fig 4: 0-8 pmol) in 10 ul DNA-binding buffer (composition not given, ref 38), 37 C, 20 min, PAGE with mixed probes; recombinant protein; protein details: His; label: FITC.

The mark [10] stands for this setting: 10 mM AI-1 (HSL), decreased binding.

The exact form of at least one protein or probe is not confirmed. For some of these results: Negatives hold for the conditions tested. For some of these results: Protein sequences can lack the tags named with them. For some of these results: Weaker means in comparison with the reference protein, sequence or condition of that experiment.

In the case of “ATTATAAAGATTTGTAAATATAACCGTCTCCGGTATGTTGCCTGAGGCGGTTTTTTTGTCTCTAACGTGCGGAAAAATTTGTTCCTCTTCACATTTTTTGTACAACCGACATGCCCGTGTAGCTCACAAATATGACAGTGGCGTGAATTTTGCGCATTGACGGCAGTTATGATTCGCGGTATTGCTTAACTGTGATTGCACATTTAGTAATCACTGTTTTCTTTTCCACCAGAAACCAGTATGAGGGAAACGAGGC (double strand) [rmf promoter probe (256 bp)]”, the binding result was “binds” in data set [1]; “no binding” in data set [2]; “binds” in data set [3] (10 mM AI-2, increased binding); “binds” in data set [3] (no effector); “binds” in data set [4]; “no binding” in data set [5]. Also, the binding result in data set [6] (setting [10]) was “binds more weakly”; in data set [6] (no effector), “binds”; in data set [7], “binds”; in [8], “binds”; in data set [9] it was “binds”.

Regarding “CGTACCGACCCCATATCGTGACGCCGCTGCTGTTGTACTAACCAAACAGGTTCCCCCTGCCATTCGCCGATTTGTAGTGCGCGCTGACCCACAAGATCGAAATTTGCCGCTTCGCCATATGGCAATTCTCCCTTCGGCAACCATAATTTTTGTTCATGGCTGACGACCCACCAGCCGTGATCTAATTTTTCAATTATACGATCCATAGCTCTTGCACTACCTTTGCATCACTGGCATGTTTAACATGGTTTTTACATTTCTCACTGAGCAGTTTTTGAATACAAACTTGCGGAGTCAATC (double strand) [rsd promoter probe (300 bp)]”, the binding result in [1] is “no binding”; in data set [2], “binds”; in [3] (10 mM AI-2, increased binding) it was “binds”; in data set [3] (no effector) it was “binds”; in data set [4] it was “no binding”; in data set [5], “binds”. Further, the binding result is given as “binds more weakly” in data set [6] (setting [10]); “binds” in [6] (no effector); “no binding” in data set [7]; “no binding” in [8]; “no binding” in data set [9].
